Results are given in words; binding and its absence hold for the method and conditions named. In cells and extracts the contact can be indirect. Some binding calls cover weakened binding; strength is not graded here.
Legend:
[1] = biological target: HspB1 (Hsp27) (human (endogenous in HeLa)) (UniProt P04792); test: co-IP; pooled gel filtration fractions (pool I of WT cells, pool II of R120G cells) with anti-HspB1 or anti-HspB5 antibody, 4 h at 4°C, protein G sepharose; washes in IPP150 (20 mM Tris-HCl pH 8, 150 mM NaCl, 0.05% NP-40); immunoblot of total, precipitate and depleted supernatant
[2] = biological target: HspB1 (Hsp27) (human (endogenous in HeLa)) (UniProt P04792); test: co-IP; as the 150 mM experiment, but washes of the immunoprecipitated proteins in IPP300 buffer (0.3 M NaCl)

Sequences of proteins named here, by UniProt entry; tags and fusion partners are left off.
UniProt P04792: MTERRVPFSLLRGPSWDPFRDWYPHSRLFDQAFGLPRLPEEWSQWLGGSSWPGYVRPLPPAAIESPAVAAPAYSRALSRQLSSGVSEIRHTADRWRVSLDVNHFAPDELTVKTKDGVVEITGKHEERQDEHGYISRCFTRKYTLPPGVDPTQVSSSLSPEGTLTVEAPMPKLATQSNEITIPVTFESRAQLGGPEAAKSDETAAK

B1: R120G mutant HspB5 (αB-crystallin) (protein, UniProt P02511 1-175)
chain: MDIAIHHPWIRRPFFPFHSPSRLFDQFFGEHLLESDLFPTSTSLSPFYLRPPSFLRAPSWFDTGLSEMRLEKDRFSVNLDVKHFSPEELKVKVLGDVIEVHGKHEERQDEHGFISREFHGKYRIPADVDPLTITSSLSSDGVLTVNGPRKQVSGPERTIPITREEKPAVTAAPKK
In the case of B1, the binding [1] is reported as “binds” and the binding [2] is reported as “binds”.

From article PMC3741289
